Data: PubChem BioAssay (NCATS)
Inconclusive results, whose numbers are uncertain, are shown with a selection of clear calls. For part of these data: A potency beside an inconclusive call is a rough fit, not a confirmed value. Calls of active or inactive are those of the source. Calls come from the whole dose curve; as a rule, active = well fitted curve in the direction sought with a large enough effect; inconclusive = small, poorly fitted or top-dose-only effect, or another doubt; inactive = no such curve, though single readings can be large; an effect the other way counts as inactive or inconclusive.

What was measured:
[1] = Quantitative High-Throughput drug screen in 47 multiple myeloma cell lines against the NCATS MIPE library collection: KMS20_JCRB cell viability assay (AID 1918973); settings: CellTiter-Glo ATP, 48 h; viability (% of DMSO): at 45.8 µM (top of the series); note: potency is the fitted concentration of half-maximal effect; nearly all actives have a fitted effect of over 45% in size
Outline: (§1)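 We plated 500 myeloma cells per well, pinned in MIPE 4.0 compounds, and incubated for 48 hours at 37C. ATP was then quantified with CellTiter-Glo, with DMSO and media-only wells defining 100% and 0%.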

[2] = Quantitative High-Throughput drug screen in 47 multiple myeloma cell lines against the NCATS MIPE library collection: KMS21BM_JCRB cell viability assay (AID 1918974); settings: ATP luminescence, 48 h; viability: at 45.8 µM (top of the series) unless noted; note: potency is the fitted concentration of half-maximal effect
Outline: as §1

[3] = Quantitative High-Throughput drug screen in 47 multiple myeloma cell lines against the NCATS MIPE library collection: KMS26_JCRB cell viability assay (AID 1918975); settings: KMS26 myeloma cells viability, CellTiter-Glo ATP, 48 h; viability (% of DMSO): at 45.8 µM (top of the series); note: nearly all actives have a fitted effect of over 45% in size; note: potency is the fitted concentration of half-maximal effect
Outline: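 Approved and investigational drugs from MIPE 4.0 were added by pin tool to 500 cells per well. After 48 hours at 37C, ATP-based CellTiter-Glo luminescence indicated remaining viability.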

[4] = Quantitative High-Throughput drug screen in 47 multiple myeloma cell lines against the NCATS MIPE library collection: MMM1_PLB cell viability assay (AID 1918976); note: potency is the fitted concentration of half-maximal effect; nearly all actives have a fitted effect of over 35% in size
Outline: (§2)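 Viability after 48 h drug exposure was measured as ATP-dependent luminescence. Cells, 500 per well, sat at 37 °C under 5% CO2; DMSO wells set 100%, media-only wells 0%.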

[5] = Quantitative High-Throughput drug screen in 47 multiple myeloma cell lines against the NCATS MIPE library collection: NCIH929_DSMZ cell viability assay (AID 1918978); note: potency is the fitted concentration of half-maximal effect; nearly all actives have a fitted effect of over 35% in size
Outline: as §2

[6] = Quantitative High-Throughput drug screen in 47 multiple myeloma cell lines against the NCATS MIPE library collection: LP1_DSMZ cell viability assay (AID 1918982); settings: LP1 myeloma viability, CellTiter-Glo ATP luminescence, 48 h; viability (% of control): at 45.8 µM (top of the series); note: nearly all actives have a fitted effect of over 35% in size; note: potency is the fitted concentration of half-maximal effect
Outline: as §2

[7] = Quantitative High-Throughput drug screen in 47 multiple myeloma cell lines against the NCATS MIPE library collection: KMS28PE_JCRB cell viability assay (AID 1918983); note: nearly all actives have a fitted effect of over 35% in size
Outline: as §2

[8] = Quantitative High-Throughput drug screen in 47 multiple myeloma cell lines against the NCATS MIPE library collection: L363_DSMZ cell viability assay (AID 1918984); settings: L363 myeloma viability, CellTiter-Glo ATP luminescence, 48 h; viability (% of control): at 45.8 µM (top of the series); note: nearly all actives have a fitted effect of over 40% in size; note: potency is the fitted concentration of half-maximal effect
Outline: as §2

[9] = Quantitative High-Throughput drug screen in 47 multiple myeloma cell lines against the NCATS MIPE library collection: KMS34_JCRB cell viability assay (AID 1918985); settings: KMS34 myeloma viability, CellTiter-Glo ATP luminescence, 48 h; viability, percent of control: at 45.8 µM (top of the series); note: nearly all actives have a fitted effect of over 40% in size
Outline: as §2

[10] = Quantitative High-Throughput drug screen in 47 multiple myeloma cell lines against the NCATS MIPE library collection: OCIMY7_PLB cell viability assay (AID 1918987); settings: OCI-MY7 myeloma viability, CellTiter-Glo ATP, 48 h; viability (% of DMSO): at 45.8 µM (top of the series); note: nearly all actives have a fitted effect of over 65% in size; note: potency is the fitted concentration of half-maximal effect
Outline: as §2

[11] = Quantitative High-Throughput drug screen in 47 multiple myeloma cell lines against the NCATS MIPE library collection: OCIMY5_PLB cell viability assay (AID 1918988); settings: OCI-MY5 myeloma viability, ATP luminescence, 48 h; viability, % of control: at 45.8 µM (top of the series); note: potency is the fitted concentration of half-maximal effect; nearly all actives have a fitted effect of over 65% in size
Outline: as §2

[12] = Quantitative High-Throughput drug screen in 47 multiple myeloma cell lines against the NCATS MIPE library collection: SKMM1_PLB cell viability assay (AID 1919863); settings: SKMM1 myeloma viability, CellTiter-Glo ATP, 48 h; viability: stronger effect = lower value; note: nearly all actives have a fitted effect of over 35% in size; note: potency is the fitted concentration of half-maximal effect
Outline: as §2

[13] = Quantitative High-Throughput drug screen in 47 multiple myeloma cell lines against the NCATS MIPE library collection: U266_ATCC cell viability assay (AID 1919864); settings: U266 myeloma viability, CellTiter-Glo ATP luminescence, 48 h; viability (% of DMSO control): at 45.8 µM (top of the series); note: nearly all actives have a fitted effect of over 35% in size; note: potency is the fitted concentration of half-maximal effect
Outline: as §2

[14] = Quantitative High-Throughput drug screen in 47 multiple myeloma cell lines against the NCATS MIPE library collection: XG6_PLB cell viability assay (AID 1919865); settings: XG6 myeloma viability, CellTiter-Glo ATP luminescence, 48 h; viability (% of control): at 45.8 µM (top of the series); note: nearly all actives have a fitted effect of over 40% in size; note: potency is the fitted concentration of half-maximal effect
Outline: as §2

[15] = Quantitative High-Throughput drug screen in 47 multiple myeloma cell lines against the NCATS MIPE library collection: XG1_PLB cell viability assay (AID 1919866); settings: CellTiter-Glo ATP, 48 h; viability: at 45.8 µM (top of the series); note: nearly all actives have a fitted effect of over 35% in size; note: potency is the fitted concentration of half-maximal effect
Outline: as §2

[16] = Quantitative High-Throughput drug screen in 47 multiple myeloma cell lines against the NCATS MIPE library collection: MOLP8_DSMZ cell viability assay (AID 1918977); settings: MOLP8 myeloma viability, CellTiter-Glo ATP luminescence, 48 h; viability (% of control): at 45.8 µM (top of the series); note: nearly all actives have a fitted effect of over 45% in size; note: potency is the fitted concentration of half-maximal effect
Outline: as §2

[17] = Quantitative High-Throughput drug screen in 47 multiple myeloma cell lines against the NCATS MIPE library collection: MM1S_ATCC cell viability assay (AID 1918980); note: potency is the fitted concentration of half-maximal effect; nearly all actives have a fitted effect of over 45% in size
Outline: as §2

[18] = Quantitative High-Throughput drug screen in 47 multiple myeloma cell lines against the NCATS MIPE library collection: MM1R_ATCC cell viability assay (AID 1918981)
Outline: as §2

[19] = Quantitative High-Throughput drug screen in 47 multiple myeloma cell lines against the NCATS MIPE library collection: OPM1_PLB cell viability assay (AID 1918989); note: nearly all actives have a fitted effect of over 40% in size
Outline: as §2

COc1ccc(C2(C#N)CCC(C(=O)O)CC2)cc1OC1CCCC1 (stereo not given)
inconclusive: Potency [1] 18.7 µM [cytotoxic, partial curve, poor fit] | Potency [2] 20.9 µM [cytotoxic, partial curve, poor fit] | Potency [4] 0.132 µM [rising, full curve] | Potency [5] 26.4 µM [cytotoxic, single point] | Potency [8] 0.0093 µM [rising, full curve, poor fit] | viability (% of DMSO) [10] 103% [cytotoxic] | Potency [11] 0.003 µM [cytotoxic, full curve, poor fit] | Potency [14] 14.8 µM [cytotoxic, partial curve] | Potency [15] 23.5 µM [cytotoxic, partial curve]
inactive: Potency [3] | Potency [6] | Potency [7] | Potency [9] | viability [12] 137% | Potency [13]

O=C1CCC[C@@H]2[C@H]3CCC[N+]4([O-])CCC[C@@H](CN12)[C@@H]34 (stereo not given in full)
inconclusive: Potency [1] 0.0235 µM [rising, full curve, poor fit] | Potency [3] 0.0093 µM [rising, full curve, poor fit] | Potency [4] 0.0023 µM [rising, full curve, poor fit] | Potency [16] 0.0019 µM [rising, full curve, poor fit] | Potency [17] 0.003 µM [rising, full curve, poor fit] | Potency [18] 0.0047 µM [rising, full curve, poor fit] | Potency [10] 2.64 µM [rising, partial curve, poor fit] | Potency [11] 0.0526 µM [rising, full curve, poor fit] | Potency [12] 0.0187 µM [rising, full curve, poor fit] | Potency [13] 0.0066 µM [rising, full curve, poor fit] | Potency [14] 0.0013 µM [rising, full curve, poor fit]
active: viability [2] 154%
inactive: Potency [8] | Potency [9] | Potency [15]

Cc1cccc(N(C)C(=S)Oc2ccc3ccccc3c2)c1
inconclusive: Potency [1] 0.0264 µM [cytotoxic, full curve, poor fit] | Potency [2] 0.0372 µM [cytotoxic, full curve, poor fit] | Potency [4] 0.0013 µM [rising, full curve, poor fit] | Potency [16] 11.8 µM [cytotoxic, partial curve, poor fit] | Potency [17] 3.32 µM [cytotoxic, full curve, poor fit] | Potency [6] 3.32 µM [cytotoxic, full curve, poor fit] | Potency [8] 33.2 µM [cytotoxic, single point] | Potency [10] 1.18 µM [cytotoxic, full curve, poor fit] | Potency [11] 0.0026 µM [cytotoxic, full curve, poor fit] | Potency [15] 37.2 µM [cytotoxic, single point]
inactive: Potency [3] | Potency [7] | Potency [9] | Potency [19] | viability [12] 112% | Potency [14]

CCC(=O)O[C@]1(C(=O)CCl)[C@@H](C)C[C@H]2[C@@H]3CCC4=CC(=O)C=C[C@]4(C)[C@@]3(F)[C@@H](O)C[C@@]21C
active: Potency [8] 0.0093 µM | Potency [11] 1.32 µM
inactive: Potency [2] | Potency [3] | Potency [16] | Potency [7] | viability [12] 109% | Potency [14]
inconclusive: Potency [1] 0.0372 µM [cytotoxic, full curve, poor fit] | Potency [4] 0.0105 µM [rising, full curve] | Potency [17] 0.003 µM [cytotoxic, full curve] | Potency [6] 0.0083 µM [cytotoxic, full curve, poor fit] | Potency [10] 0.0833 µM [cytotoxic, full curve, poor fit] | Potency [13] 37.2 µM [cytotoxic, single point]
